Source: paper doi:10.1101/2023.05.23.542025

Target: GST-fused CBP deletion mutant, C/H3 domain (Lane 5)
Assay: pull-down

B1: endogenous STAT6 (protein, UniProt P52633 1-837)
chain: MSLWGLISKMSPEKLQRLYVDFPQRLRHLLADWLESQPWEFLVGSDAFCYNMASALLSATVQRLQATAGEQGKGNSILPHISTLESIYQRDPLKLVATIRQILQGEKKAVIEEFRHLPGPFHRKQEELKFTTALGRLQHRVRETRLLRESLQQGAKTGQVSLQNLIDPPVNGPGPSEDLATMLQGTVGDLEATQALVLKRIQIWKRQQQLAGNGTPFEESLAGLQERCESLVEIYSQLQQEIGAASGELEPKTRASLISRLDEVLRTLVTSSFLVEKQPPQVLKTQTKFQAGVRFLLGLQFLGTSAKPPMVRADMVTEKQARELSLAQGPGTGVESTGEIMNNTVPLENSIPSNCCSALFKNLLLKKIKRCERKGTESVTEEKCAVLFSTSFTLGPNKLLIQLQALSLPLVVIVHGNQDNNAKATILWDNAFSEMDRVPFVVAERVPWEKMCETLNLKFMAEVGTSRGLLPEHFLFLAQKIFNDNSLSVEAFQHRCVSWSQFNKEILLGRGFTFWQWFDGVLDLTKRCLRSYWSDRLIIGFISKQYVTSLLLNEPDGTFLLRFSDSEIGGITIAHVIRGQDGSSQIENIQPFSAKDLSIRSLGDRIRDLAQLKNLYPKKPKDEAFRSHYKPEQMGKDGRGYVSTTIKMTVERDQPLPTPEPQMPAMVPPYDLGMAPDASMQLSSDMGYPPQSIHSFQSLEESMSVLPSFQEPHLQMPPNMSQITMPFDQPHPQGLLQCQSQEHAVSSPEPMLCSDVTMVEDSCLTQPVGGFPQGTWVSEDMYPPLMPPTEQDLTKLLLENQGEAGGSLGSQPLLQPSPYGQSGISLSHLDLRTNPSW
B1 was tested, and the binding was “binds”.

Results are given in words; binding and its absence hold for the method and conditions named. Binding seen in cells or lysates may run through a third protein. Binding calls can cover weak binding; strength is not graded here.
